Measurements reported in PubChem BioAssay AID1259308 (NCATS, 2017)

- Aim: 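Genes whose loss raises luciferase production in HEK293 cells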 (primary screen)
- System: human HEK293 embryonic kidney cells stably expressing firefly luciferase (HEK-CMV-Luc2-Hygro)
- Reagent: single siRNA against human genes, 0.8 pmol siRNA per well
- Duration: 72 h
- Detection: 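Reporter luminescence and viable-cell signal on separate replicate plates, given as percent of non-targeting control and median/MAD z-scores, plus per-cell luciferase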
- Scale: total luciferase, z-score and total luciferase, % of control: higher = more reporter protein produced
- Hit rule: 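An siRNA counts as active if its total luciferase robust z-score exceeds 3; genes with two or more such siRNAs out of three were retested with fresh siRNAs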
- Meaning of the calls: active = raised luciferase; inactive = no rise
Shown is a random part of about 59,000 reagents. About 1,510 of them (2.6%) count as active. 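Calls use total luciferase alone and ignore viability, so some active siRNAs may act by altering cell number.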 Entries without a mark were called inactive. Reagents against one gene are numbered here. Not all columns of the deposit are shown. No sequences are given here.

TMEM209 #1 scored total luciferase, z-score -0.625; total luciferase, % of control 69.5.
TMEM209 #2 scored total luciferase, z-score -0.0325; total luciferase, % of control 81.2.
TMEM209 #3 showed total luciferase, z-score -0.214; total luciferase, % of control 77.6.
Depletion of CHST1 #1 resulted in: total luciferase, z-score -0.105; total luciferase, % of control 79.8.
Knock-down of CHST1 #2 came out at: total luciferase, z-score 1.2; total luciferase, % of control 106.
For CHST1 #3 the deposit lists total luciferase, z-score 1.7; total luciferase, % of control 116.
Depletion of DHRS9 #1 resulted in: total luciferase, z-score -0.607; total luciferase, % of control 69.8.
With knock-down of DHRS9 #2 the results were total luciferase, z-score -0.503; total luciferase, % of control 71.9.
Silencing of DHRS9 #3 gave: total luciferase, z-score -0.758; total luciferase, % of control 66.8.
Silencing of MCAM #1 came out at: total luciferase, z-score 0.616; total luciferase, % of control 94.1.
MCAM #2 showed total luciferase, z-score 0.0622; total luciferase, % of control 83.1.
MCAM #3 showed total luciferase, z-score -1.29; total luciferase, % of control 56.2.
Knock-down of URGCP #1 came out at: total luciferase, z-score -1.22; total luciferase, % of control 57.7.
After knock-down of URGCP #2, the record shows total luciferase, z-score 0.318; total luciferase, % of control 88.2.
Knock-down of URGCP #3 gave: total luciferase, z-score 3.66 (active); total luciferase, % of control 155.
Against ZSWIM1 #1, the entry reads total luciferase, z-score -1.48; total luciferase, % of control 52.5.
For ZSWIM1 #2, the values are total luciferase, z-score 1.73; total luciferase, % of control 116.
Silencing of ZSWIM1 #3 came out at: total luciferase, z-score -2.18; total luciferase, % of control 38.5.
Depletion of SUMO2 #1 came out at: total luciferase, z-score 0.19; total luciferase, % of control 85.7.
Knock-down of SUMO2 #2 resulted in: total luciferase, z-score 2.7; total luciferase, % of control 136.
For SUMO2 #3, the entry reads total luciferase, z-score 0.314; total luciferase, % of control 88.1.

Reformatted: results already given
| target gene | reagent | total luciferase, z-score | total luciferase, % of control |
| --- | --- | --- | --- |
| TMEM209 | 1 | -0.625 | 69.5 |
| TMEM209 | 2 | -0.0325 | 81.2 |
